Assay results from article PMC10163288.
This is one part of the list.

B1: il2ra_site1_3nfp_normal_mot_5dea99290cf7e133ebc5b763b21a7a39_0001_000000141_0001_34_49_H_._9a51d51d2fb94bb7d8a0fe0c4708f7cc_0001_0001_0000300025_0000001_1 (protein)
chain: SAAEQAIKAAERLAPPELRRLLREILEEIEKNPEDARLLQLLSKLVDLIWKGNEEEAEELAKEVT
B2: il2ra_site1_3nfp_sap_13_mot_HHH_b1_02647_af2_000000015_0001_39_52_H_._HHH_b1_04164_0001_0000400045_0000001_0_0001 (protein)
chain: SSSSSDLEEDAKYLVEFLVELNGLSEEQEERLEKLAEELVKRGLDAAEIARALMKLAARLSSSSS
B3: il2ra_site2_3nfp_normal_mot_HHH_b2_07840_000000026_0001_18_34_H_._HHH_b1_00395_0001_0000300009_0000001_0_af2pred_0001_af2pred (protein)
chain: SSSSSDEEIREEVEELLELAERIEDEIEVFAVLADALRLALELEDPELERLVQEVARRLKSSSSS
B4: il2ra_site1_1z92_normal_mot_HHH_b1_08075_000000018_0001_1_20_H_._HHH_b1_07718_0001_0000200023_0000001_0 (protein)
chain: SSSSSRAEHIAVRLFLQTAERAIEAGNPRAAERLLRFAEEAARIGNDEELLEEVERLLEELSSSS
B5: il2ra_site1_3nfp_normal_mot_HHH_b1_02637_af2_000000026_0001_1_18_H_._HHH_b2_01402_af2_0001_0000200009_0000001_0_af2pred_0001_af2pred (protein)
chain: SSSSDKEEAERLLRQATELLRNGNPEEAREVLEEALKIAEESGDEVLARFLRIALEIAKTGSSSS
B6: il2ra_site2_2erj_normal_mot_HHH_b1_02106_af2_000000056_0001_20_36_H_._HHH_b1_08722_0001_0000300007_0000001_0 (protein)
chain: SSSDKEEKAKELLEEVERLLEEGDTEEAERVVRKAAALAIEANDFELFAELSELTRLIAELSSSS
B7: il2ra_site2_3nfp_sap_19_mot_HHH_b2_06150_000000217_0001_39_53_H_._HHH_b2_00198_af2_0001_0000700033_0000001_0_0001 (protein)
chain: SSSSSSSDEEEVEELLEEAKQIDDEEELLRVLLRAAHIAWKNRDEELYARISEVIEKLSSSSSSS
B8: il2ra_site1_1z92_sap_14_mot_47733d3662eb36425869ff66b6028fdd_0001_af2_000000189_0001_37_50_H_._HHH_b1_00762_af2_0001_0000200017_0000001_0_0001 (protein)
chain: SELEEILEEVLKLIPNPKAREFLRRQLERKLERGNEKAAIRLALDMAEMAGNPELARLLRELLEP
B9: il2ra_site1_3nfp_sap_12_mot_HHH_b1_04364_000000255_0001_42_57_H_._27223525e44f26cbb76cb0a34dbb38cc_0001_af2_0001_0000100007_0000001_0_0001_af2pred_0001_af2pred_ … (protein)
chain: TEELTEEILELLKKDPNEAYRLFRELLRKKGIPPEEARKLAEEVLRLAAKLPPEELEEFIRELLR
B10: il2ra_site1_2b5i_normal_mot_HHH_b1_08426_af2_000000046_0001_39_52_H_._HHH_b1_04601_af2_0001_0000400021_0000001_0 (protein)
chain: SSSSDAAELADEYFHEASELFRRGNPEEARKLLEELEKLLKELNDERHLEDVERFLELLRNSSSS
B11: il2ra_site2_3nfp_normal_mot_HHH_b2_02747_af2_000000180_0001_18_35_H_._0ecac647df5eb0af5a9a32b1f4cfbb8e_0001_0001_0000400044_0000001_0 (protein)
chain: SLRRLFNEAYEEGDPELFMLVQLARDLLEQGIPPEEVEEIVERRAELEGIPPEVVERVREAIREH
B12: il2ra_site1_3nfp_normal_mot_HHH_b2_00809_af2_000000121_0001_23_40_H_._HHH_b1_02144_0001_0000100003_0000001_0_af2pred_0001_af2pred (protein)
chain: SSSSDREERAEEIFEEIQKAIEEGDQELLKKLLRLLFEFARKFEDPYAKELAREIIRLLGSSSSS
B13: il2ra_site2_2erj_normal_mot_HHH_b2_02727_000000149_0001_42_55_H_._HHH_b1_02740_0001_0000500026_0000001_0_af2pred_0001_af2pred (protein)
chain: SSSSDESELLVLAAENAAKIAEEEGDPEEAENLLRVVLELLEELGDEEAVERIRKLLEELSSSSS
B14: il2ra_site2_3nfp_sap_15_mot_HHH_b1_00660_af2_000000199_0001_40_57_H_._HHH_b1_03595_0001_0000100006_0000001_0_0001 (protein)
chain: SSSSDKSEEYLEAALALLRRALEEGDEEAIEKLARMLQMAAEDQGNPELVEEVRKLVEEFLSSSS
B15: il2ra_site1_3nfp_sap_11_mot_40ac32ce855e0fd9c7bcc7eb247393e9_0001_000000113_0001_1_14_H_._HHH_b2_01948_af2_0001_0000100007_0000001_0_0001 (protein)
chain: SSDQFFEELVRRVEELAEEKNDEEVRELAERARRLFREAEENQDSEKADEAIRIVARLMNEVQSS
B16: il2ra_site2_2erj_normal_mot_HHH_b2_01353_af2_000000049_0001_23_39_H_._HHH_b2_08022_af2_0001_0000500015_0000001_0 (protein)
chain: SSSDEEEQVERLIEEAEKLLEEGNPEEALEVLRRAAELAFRLNNHELFAEIAELTEAIARASSSS
B17: il2ra_site1_2b5i_normal_mot_HHH_b2_02581_000000027_0001_1_15_H_._HHH_b1_04616_0001_0000300020_0000001_0_af2pred_dldesign_0_af2pred (protein)
chain: SSSSSREFRRLLLEVERLLKELKKLGHEEEYDKVFELAEEALESRDPSLLREAVALARRILSSSS
B18: il2ra_site2_2erj_sap_40_mot_c2bf78bdce995293a161f7082e24b401_0001_000000177_0001_37_51_H_._aad918059751cfb3ae4f7fa8c0860a5b_0001_1_0001_0000100002_0000001_0_000 … (protein)
chain: SSSDLEEEVKELLERAEELLKEGNPEEAEEVLREAAEIVFRLGNFELFAAVARLLEEIAKRESSS
B19: il2ra_site1_2b5i_normal_mot_HHH_b2_04910_000000118_0001_1_19_H_._HHH_b1_07011_0001_0000300017_0000001_0_af2pred_dldesign_0_af2pred (protein)
chain: SSSSSPEGKKIRELIKEAEALKKAGKEEEAKKKLEEALELAKKLGSKLKVRFIESCLKLVSSSSS

Each binder was assayed against il2ra, P01589 (assay: yeast display titration).

Row | Binder | apparent Kd
1 | B1 | inactive: no binding seen
2 | B2 | inactive: no binding seen
3 | B3 | inactive: no binding seen
4 | B4 | inactive: no binding seen
5 | B5 | inactive: no binding seen
6 | B6 | inactive: no binding seen
7 | B7 | inactive: no binding seen
8 | B8 | inactive: no binding seen
9 | B9 | inactive: no binding seen
10 | B10 | inactive: no binding seen
11 | B11 | inactive: no binding seen
12 | B12 | inactive: no binding seen
13 | B13 | inactive: no binding seen
14 | B14 | inactive: no binding seen
15 | B15 | inactive: no binding seen
16 | B16 | inactive: no binding seen
17 | B17 | inactive: no binding seen
18 | B18 | inactive: no binding seen
19 | B19 | inactive: no binding seen

Looked up above.
apparent Kd, B8 reads inactive: no binding seen
apparent Kd, B11 reads inactive: no binding seen
